PubChem BioAssay AID1259308 | NCATS – 2017

Screen: 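Candidate targets for better recombinant protein yield in mammalian cells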 (primary screen)
Cell system: human HEK293 embryonic kidney cells stably expressing firefly luciferase (HEK-CMV-Luc2-Hygro)
Reagent: single siRNA against human genes, 0.8 pmol siRNA per well
Timing: 72 h
Measured: 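Reporter luminescence and viable-cell signal on separate replicate plates, given as percent of non-targeting control and median/MAD z-scores, plus per-cell luciferase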
Direction: total luciferase, z-score and total luciferase, % of control: higher = more reporter protein produced; luciferase per cell, z-score: higher = more reporter output per viable cell
Rule for the call: 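Active when the median/MAD z-score for overall luciferase is greater than 3; a gene was taken forward for validation with new siRNAs if at least two of its three siRNAs passed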
Calls: active = raised luciferase; inactive = no rise
Shown is a random part of about 59,000 reagents. About 1,510 of them (2.6%) count as active. 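Calls use total luciferase alone and ignore viability, so some active siRNAs may act by altering cell number.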 Reagents against one gene are numbered here. Not all columns of the deposit are shown.

target gene	reagent	total luciferase, z-score	total luciferase, % of control	luciferase per cell, z-score	Call
ZNF286B	1	-0.135	79.2	0.126	inactive
ZNF286B	2	2.3	128	2.91	inactive
ZNF286B	3	0.729	96.4	1.07	inactive
RASSF3	1	1.68	115	1.25	inactive
RASSF3	2	0.964	101	0.107	inactive
RASSF3	3	-1.06	60.8	-1.15	inactive
CEP192	1	-0.229	77.3	0.158	inactive
CEP192	2	-1.43	53.5	-1.17	inactive
CEP192	3	-0.987	62.3	-0.226	inactive
MARCHF2	1	1.02	102	0.867	inactive
MARCHF2	2	-0.802	65.9	-0.839	inactive
MARCHF2	3	-0.769	66.6	-1.28	inactive
OCEL1	1	4.01	162	2.69	active
OCEL1	2	-0.899	64	-1.77	inactive
OCEL1	3	-1.18	58.3	-0.966	inactive
SEC11C	1	1.03	102	0.502	inactive
SEC11C	2	-0.642	69.1	-1.19	inactive
SEC11C	3	0.684	95.5	0.94	inactive
LOC727799 (retired record)	1	-0.551	70.9	-0.873	inactive
LOC727799 (retired record)	2	-0.075	80.4	-0.609	inactive
LOC727799 (retired record)	3	1.46	111	2.68	inactive

Entries above marked active, once more:
target gene	reagent	total luciferase, z-score	total luciferase, % of control	luciferase per cell, z-score	Call
OCEL1	1	4.01	162	2.69	active

Further results follow:
target gene	reagent	total luciferase, z-score	total luciferase, % of control	luciferase per cell, z-score	Call
RPS15A	1	-2.49	32.3	-2.06	inactive
RPS15A	2	-2.71	27.9	-1.12	inactive
RPS15A	3	-2.46	33	-2.82	inactive
PPM1B	1	1.99	121	1.38	inactive
PPM1B	2	0.735	96.5	1.23	inactive
PPM1B	3	0.384	89.5	0.371	inactive
OR5P3	1	1.42	110	1.55	inactive
OR5P3	2	-0.331	75.3	0.996	inactive
OR5P3	3	-1.63	49.4	-1.75	inactive
ZC2HC1C	1	0.593	93.7	0.874	inactive
ZC2HC1C	2	-0.045	81	-0.0758	inactive
ZC2HC1C	3	1.79	118	2.1	inactive
OR5B17	1	0.28	87.5	-0.172	inactive
OR5B17	2	-0.543	71.1	-0.88	inactive
OR5B17	3	0.687	95.6	-0.323	inactive
ATG16L1	1	0.514	92.1	0.828	inactive
ATG16L1	2	1.75	117	3.52	inactive
ATG16L1	3	-0.0311	81.3	-0.201	inactive
